Some entries share one result that the patent states for a list of compounds. At least one compound was matched to its structure with a doubt left.
Tested on: Balb/c spleen cells
Experiment: Mixed Lymphocyte Reaction (MLR), activity relative to cyclosporin A
Type: cell-based, mice
From the text: Cyclosporins which bind strongly to cyclophilin but are not immunosuppressive have been identified. A cyclosporin is considered to be non-immunosuppressive when it has an activity in the Mixed Lymphocyte Reaction (MLR) of no more than 5%, preferably no more than 2%, that of cyclosporin A. The Mixed Lymphocyte Reaction is described by T. Meo in “Immunological Methods”, L. Lefkovits and B. Peris, Eds., Academic Press, N.Y. pp. 227-239 (1979). Spleen cells (0.5×10^6) from Balb/c mice (female, 8˜10 weeks) are co-incubated for 5 days with 0.5×10^6 irradiated (2000 rads) or mitomycin C treated spleen cells from CBA mice (female, 8˜10 weeks). The irradiated allogeneic cells induce a proliferative response in the Balb/c spleen cells which can be measured by labeled precursor incorporation into the DNA. […] The IC50 found for the test compound in the MLR is compared with that found for cyclosporin A in a parallel experiment. In addition, non-immunosuppressive cyclosporins lack the capacity of inhibiting CN and the downstream NF-AT pathway.

## CC=CCC(C)C(O)C1C(=O)NC(CC)C(=O)N(C)CC(=O)N(C)C(C(C)C)C(=O)NC(C(C)C)C(=O)N(C)C(CC(C)C)C(=O)NC(C)C(=O)NC(C)C(=O)N(C)C(CC(C)C)C(=O)N(C)C(CC(C)C)C(=O)N(C)C(C(C)C)C(=O)N1C (stereo not shown) [[MeVal]^4-Ciclosporin]
  IR (Immunosuppressive Ratio), percentage of the activity relative to Cyclosporin A: < 1%
